In the supplement of paper PMC5949888:
Most values lie at the floor of the assay. Slopes are relative: functional sequences can read slightly below zero.

Tested on: Saccharomyces cerevisiae PS128 hsf1 delta, HSF1(1-493) fusion
Test: growth estimate (transactivation domain function in HSF1 fusion, heat-shock survival) (a.u. (slope of normalised read count over time)); higher = stronger growth at 37°C, i.e. more transactivation activity
Conditions: library: random library

Substance | growth estimate
WMGSEKIGVKCCVPSRASRS | < -0.25
WMHRSLCTCITTNFVRTLSE | < -0.25
WMVRFSPRSDIDKVTKACRD | < -0.25
WNGFRGIGSYMARLYVLGSG | < -0.25
WNLTGLRGSYPRHRRVKPSS | < -0.25
WNPRRECLVWSKWCQSI | < -0.25
WNPTRLWVPFWATVGTP | < -0.25
WNRSTILTAQIPAEPTPFCR | < -0.25
WNVPIAQKNDAIG | < -0.25
WPARCARAEGPIEHTTKTQG | < -0.25
WPARGPYTRNFAGLFPFMTV | < -0.25
WPDATRYFLCIANSDSIRLK | < -0.25
WPIC | < -0.25
WPKERHD | < -0.25
WPLLTYGLILSGYSLLFSIP | < -0.25
WPLPNSGTYV | < -0.25
WPVAGDHATRTGRLTNKDRP | < -0.25
WPVVAVGQTHPVVGWYDRMR | < -0.25
WQGGGRS | < -0.25
WQIEHHECVFIHSQRLHRIP | < -0.25
WQQLTD | < -0.25
WRATVTEEEHQPCGDNRS | < -0.25
WRDQSLDLDRGVVCTGCKGF | < -0.25
WREI | < -0.25
WRFTN | < -0.25

Substance | growth estimate
WRG | < -0.25
WRGLVQWNVVRLVDFFRRSP | < -0.25
WRGPFQLKDSNICAGHVGAL | -0.195
WRGSLR | < -0.25
WRGSMEHIRITFLV | < -0.25
WRHERAVRYRFQVWVPYLSR | < -0.25
WRILPMLT | < -0.25
WRKISLLTPLSQVVGGGCPG | < -0.25
WRKSLEGINSDNLRPVNVPS | -0.246
WRL | < -0.25
WRLHKRPNPSC | < -0.25
WRLTVGACVWDPSASR | < -0.25
WRNKL | < -0.25
WRNTFVTKRARGRWPSTV | < -0.25
WRPRTCDAAPGPIHGLHTCR | < -0.25
WRRWISDSPTSPRRTR | < -0.25
WRS | < -0.25
WRVTTAPRKITSHSVSRYHP | < -0.25
WRWAISVDSRRHQTWRGYGR | < -0.25
WRWVPKMFWSLFICSVIQKK | < -0.25
WRYDDQPDKLGAQTLGSLFM | < -0.25
WSATTNRSLSKCNQLRRALI | < -0.25
WSEYPVRGPLSKHARLLVDR | < -0.25
WSFSSPDPGCVRPPRSTRRA | < -0.25
WSGIGTVCKLGTSYVHVAAV | < -0.25

Substance | growth estimate
WSGTSTRCGGYMGRYLCNRM | < -0.25
WSHQTQACDHGVPFSDCVDS | < -0.25
WSHRVPVCSDDFAV | < -0.25
WSIIR | < -0.25
WSIRPPSLGPYYVGVRMTGT | < -0.25
WSLEDFCLSLVFKSC | < -0.25
WSPGHIAKVARRAKI | < -0.25
WSPPSRI | < -0.25
WSQGSPGVSY | < -0.25
WSQNTGVG | < -0.25
WSQR | < -0.25
WSRPTLGALLLMSINLVNSL | < -0.25
WSSGGLPSVHVRFKRCTSLR | < -0.25
WSSLHTERVGISTTDERPSN | < -0.25
WSSRNAVS | < -0.25
WSTCALGSDNEVAHHPAWVA | -0.246
WSTL | < -0.25
WSTSHRIQYAGLETDPCIQG | < -0.25
WSVSSSS | < -0.25
WTCDNGV | < -0.25
WTCSAA | < -0.25
WTGAGPGIGSCGSPFKSAAL | < -0.25
WTGCGSRQVSKKVVNERAMR | < -0.25
WTLYKIASELSRSSTQQNKG | < -0.25
WTPRDRHVHTDEKRSRFRQM | < -0.25

As entered above:
WSSLHTERVGISTTDERPSN | growth estimate: < -0.25
WNVPIAQKNDAIG | growth estimate: < -0.25
WTGAGPGIGSCGSPFKSAAL | growth estimate: < -0.25
WQGGGRS | growth estimate: < -0.25
WRDQSLDLDRGVVCTGCKGF | growth estimate: < -0.25
WRLHKRPNPSC | growth estimate: < -0.25

More entries.

Substance | growth estimate
WTQ | < -0.25
WTRGQSSSISPLACSHA | < -0.25
WTRSGIRID | < -0.25
WTS | < -0.25
WTTSLS | < -0.25
WTTSRT | < -0.25
WTVPIL | < -0.25
WVCG | < -0.25
WVGPKAEKCHHS | < -0.25
WVGSLPSPSLIQWVLSSTI | < -0.25
WVGSV | < -0.25
WVICQHRRGRHRVPIITVRV | < -0.25
WVIDALVECDEPTAYDREPP | < -0.25
WVKVTWYAPCTFSYIDHVGA | < -0.25
WVLPNRSMSPFWRGARISLA | < -0.25
WVM | < -0.25
WVMQLGESSRSPSV | < -0.25
WVR | < -0.25
WVRENRKSSAFCMDGNPPAT | < -0.25
WVTSLDHAWQLLRRAFAWLF | < -0.25
WVVGC | < -0.25
WVVSLSTPA | < -0.25
WWCA | < -0.25
WWIVIRYRHNWSHLQVTSKV | < -0.25
WWLKRSSADGCNGDPTFW | -0.238

Substance | growth estimate
WWNFFNKLSVVVCSNRVTVR | < -0.25
WWQNNFDGVATGCPKVTYAD | < -0.25
WWSGDESGPFLVLSYRTPSL | < -0.25
WWSNVARDRPPSNRCEELSG | < -0.25
WWWGSTSGVDKDGYVKSILP | < -0.25
WYASHG | < -0.25
WYDRGGSAG | < -0.25
WYFVRVRGSGPKDGLGPTSI | < -0.25
WYGNPWGLRFRARKPYLDDM | < -0.25
WYHRVARRD | < -0.25
WYK | < -0.25
WYLGQLWEMG | < -0.25
WYR | < -0.25
WYRREAEEGTVCMNGYLTEG | < -0.25
WYTRLFILR | < -0.25
WYTVHERSPLD | < -0.25
YAANPDRLGDRRKSSKHDQD | < -0.25
YADAPNWF | < -0.25
YAESRSAGSP | < -0.25
YAHRNSFKVR | < -0.25
YAINKLPRCS | < -0.25
YAKWRHTCQSSGVCHNLRCQ | < -0.25
YALWTDSWFSSGSPEDCMDQ | < -0.25
YAPPVLLGLSNCCLTT | < -0.25
YARSAVGLQLLLAHYEYEKR | < -0.25

Substance | growth estimate
YASFTIGGAFKKLL | < -0.25
YASSTPGVYVRECTKKCAEA | < -0.25
YASVWV | < -0.25
YATAPEKSFPDETPNVTRNS | < -0.25
YATWPPSCSARHAHSRKNVD | < -0.25
YAVSGTRNDHCVAAQRPTWG | < -0.25
YAVTKHSR | < -0.25
YCGEGASESNRPRDIRIILP | < -0.25
YCGSQGKRRGTPFSSSEQIA | < -0.25
YCIRRP | < -0.25
YCLVLLCAYGELLDTYGRKP | < -0.25
YCMGKSPGFGGWQPTPAGWP | < -0.25
YCPGQSSYYLITWEPLIKRC | < -0.25
YCRSSSKENALFLYLL | < -0.25
YCVSPLCETTTTPGLMYERS | < -0.25
YDGNFLMDNEVSPLRRRQWS | < -0.25
YDILQPRVLCVHGRSPSCFT | < -0.25
YDKPEELP | < -0.25
YDM | < -0.25
YDQSLFASHRDICPQGLLPN | -0.25
